In the supplement of paper PMC6331611:
“And” between values parts separate entries of the source, which are not always exact repeats. Equal entries are not always repeated. ± gives the standard deviation of the averaged measurements. In all, about 1,600 compounds were measured (“normalized growth (OD600, IQM-normalized) in LPM”: median about 1, lowest 2% from about 0.014 on). The list shows a part of the results.

Test system: Salmonella enterica serovar Typhimurium SL1344
Test: normalized growth (OD600, IQM-normalized) in LPM (fraction of plate interquartile mean); higher = more bacterial growth (less inhibition)
Conditions: LPM pH 5.8; 10 µM; 16 h

SMILES	normalized growth
CC(=O)OCC1=C(C(=O)O)N2C(=O)[C@@H](NC(=O)CSc3ccncc3)[C@H]2SC1	0.957 ± 0.058
O=C1OC2(c3ccc(O)cc3Oc3cc(O)ccc32)c2ccccc21	0.99 ± 0.014
CN(C)[C@@H]1C(O)=C(C(N)=O)C(=O)[C@@]2(O)C(O)=C3C(=O)c4c(O)ccc(Cl)c4[C@@](C)(O)[C@H]3C[C@@H]12	0.0113 ± 0.00051
CC(C)[C@H](NC(=O)[C@H](CC(=O)O)NC(=O)[C@H](CCCCN)NC(=O)[C@@H](N)CCCN=C(N)N)C(=O)N[C@@H](Cc1ccc(O)cc1)C(=O)O	0.991 ± 0.011
C[C@]12CC[C@@H]3c4ccc(O)cc4CC[C@H]3[C@@H]1CCC2=O	1.19 ± 0.15
CCOC(=O)C1=C[C@]2(CC)CCCN3CCc4c(n1c1ccccc41)[C@@H]32	1.06 ± 0.037
O=NN(CCCl)C(=O)NC1CCCCC1	0.914 ± 0.045
COc1ccccc1O	0.951 ± 0.037
Cc1cccc(CN2CCN(C(c3ccccc3)c3ccc(Cl)cc3)CC2)c1 (centres undefined)	1.04 ± 0.068
COc1cnc(NS(=O)(=O)c2ccc(N)cc2)nc1	1.21 ± 0.028
O=C(O)CCC(=O)Nc1ccc(S(=O)(=O)Nc2nccs2)cc1	0.958 ± 0.029
COc1ccc(-c2cc(=O)c3c(O)cc(O[C@@H]4O[C@H](CO[C@@H]5O[C@@H](C)[C@H](O)[C@@H](O)[C@H]5O)[C@@H](O)[C@H](O)[C@H]4O)cc3o2)cc1O	1.06 ± 0.032
COc1ccc(C(=O)c2ccc(C)cc2)c(O)c1	1.01 ± 0.024
NC(=O)NC(=O)Cc1ccccc1	0.876 ± 0.017
CC1(C)[C@H]2CC[C@]1(CS(=O)(=O)O)C(=O)C2=Cc1ccc(C=C2C(=O)[C@@]3(CS(=O)(=O)O)CC[C@@H]2C3(C)C)cc1	0.989 ± 0.073
CN1[C@@H](CC(=O)c2ccccc2)CCC[C@H]1C[C@H](O)c1ccccc1	1.13 ± 0.05
c1ccc2[nH]c(-c3cscn3)nc2c1	1 ± 0.025
OC[C@@H](O)[C@@H](O[C@@H]1O[C@H](CO)[C@H](O)[C@H](O)[C@H]1O)[C@H](O)[C@@H](O)CO	0.98 and 0.904
CCN1CC(CCN2CCOCC2)C(c2ccccc2)(c2ccccc2)C1=O (centres undefined)	1.05 ± 0.087
CC(=O)Nc1ccc(CC(=O)O)cc1	1.03 ± 0.045
Cc1nc2n(c(=O)c1CCN1CCC(c3noc4cc(F)ccc34)CC1)CCCC2	1.11 ± 0.026
CNCCC(Oc1ccc(C(F)(F)F)cc1)c1ccccc1 (centres undefined)	0.857 ± 0.024
CC(=O)OCC(=O)[C@@]12N=C(C)O[C@@H]1C[C@H]1[C@@H]3CCC4=CC(=O)C=C[C@]4(C)[C@H]3[C@@H](O)C[C@@]12C	1.06 ± 0.023
CC(C)(C)NC[C@H](O)c1ccc(O)c(CO)c1	0.993 ± 0.055
CC(C)Nc1ncccn1	1.05 ± 0.019

SMILES	normalized growth
O=S(=O)(O)CCS	0.949 ± 0.029
CCn1cc(C(=O)O)c(=O)c2cnc(N3CCCC3)nc21	1.05 ± 0.052
CCCCCCCCCCCCC[N+](C)(C)Cc1ccccc1	1.01 ± 0.03
CC(=O)[C@H]1CC[C@H]2[C@@H]3C[C@H](C)C4=CC(=O)CC[C@]4(C)[C@H]3[C@@H](O)C[C@]12C	1.91 ± 0.14
CCOC(=O)OC(C)OC1=C(C(=O)Nc2ccccn2)N(C)S(=O)(=O)c2ccccc21 (centres undefined)	1.04 ± 0.05
O=C(O)c1cc(-c2ccc(F)cc2F)ccc1O	0.966 ± 0.045
CCCCNC(=O)NS(=O)(=O)c1ccc(C)cc1	1.12 ± 0.058
C[C@]12C=CC(=O)C=C1CC[C@@H]1[C@@H]2[C@@H](O)C[C@@]2(C)[C@H]1CC[C@]2(O)C(=O)COC(=O)CCC(=O)O	0.977 ± 0.058
COC(=O)[C@@H]1[C@H]2C[C@H]3c4[nH]c5ccccc5c4CCN3C[C@@H]2CC[C@@H]1O	0.956 ± 0.048
CC1(C)NC(=O)N(c2ccc([N+](=O)[O-])c(C(F)(F)F)c2)C1=O	0.979 ± 0.02
CCCCCCc1ccc(O)cc1O	1.02 ± 0.053
CC(=O)N[C@@H]([C@@H](O)[C@H](O)[C@H](O)CO)[C@@H](O)CC(=O)C(=O)O	1 ± 0.065
CCC1=C(C)CN(C(=O)NCCc2ccc(S(=O)(=O)NC(=O)N[C@H]3CC[C@H](C)CC3)cc2)C1=O	0.926 ± 0.053
CCCCOc1cc(C(=O)NCCN(CC)CC)c2ccccc2n1	1.09 ± 0.055
CC[C@H]1OC(=O)[C@H](C)C(=O)[C@H](C)[C@@H](O[C@@H]2O[C@H](C)C[C@H](N(C)C)[C@H]2O)[C@](C)(OC)C[C@@H](C)C(=O)[C@H](C)[C@H]2N(CCCCn3cnc(-c4cccnc4)c3)C(=O)O[C@]12C	0.668 ± 0.046
N#C[C@@H]1C[C@@H]2C[C@@H]2N1C(=O)[C@@H](N)C12CC3CC(CC(O)(C3)C1)C2	0.919 ± 0.091
CCS(=O)(=O)CCn1c([N+](=O)[O-])cnc1C	0.994 ± 0.039
O=C1CCc2cc(OCCCCc3nnnn3C3CCCCC3)ccc2N1	1.06 ± 0.023
N=C(N)NC(=O)c1nc(Cl)c(N)nc1N	0.9797 ± 0.0063
COc1ccc(Cc2cnc(N)nc2N)cc1OC	0.546 ± 0.071
CCCCC1=NC2(CCCC2)C(=O)N1Cc1ccc(-c2ccccc2-c2nnn[nH]2)cc1	0.907 ± 0.035
CC[C@H]1OC(=O)[C@H](C)[C@@H](O[C@H]2C[C@@](C)(OC)[C@@H](O)[C@H](C)O2)[C@H](C)[C@@H](O[C@@H]2O[C@H](C)C[C@H](N(C)C)[C@H]2O)[C@](C)(OC)C[C@@H](C)C(=O)[C@H](C)[C@@H](O)[C@]1(C)O	0.648 ± 0.059
CCCCOC(=O)c1ccc(N)cc1	1.08 ± 0.031
O=C(Nc1ccc(C(=O)O)c(O)c1)c1ccccc1	1.12 ± 0.053
CC(C)COCC(CN(Cc1ccccc1)c1ccccc1)N1CCCC1 (centres undefined)	1.04 ± 0.025

SMILES	normalized growth
C=NC(C(=O)NC1C(=O)N2C1SC(C)(C)C2C(=O)O)c1ccccc1 (centres undefined)	0.913 ± 0.058
CCOC(=O)[C@H](CCc1ccccc1)N[C@@H](C)C(=O)N1[C@H](C(=O)O)C[C@@H]2CCC[C@@H]21	1.01 ± 0.038
NC(=O)c1ncn([C@@H]2O[C@H](CO)[C@@H](O)[C@H]2O)n1	1.03 ± 0.024
CNS(=O)(=O)Cc1ccc2[nH]cc(CCN(C)C)c2c1	1.06 ± 0.032
O=C(CCCl)NCc1ccccc1	1.06 ± 0.049
CN[C@H](CC(C)C)C(=O)N[C@H]1C(=O)N[C@@H](CC(N)=O)C(=O)N[C@H]2C(=O)N[C@H]3C(=O)N[C@H](C(=O)N[C@H](C(=O)O)c4cc(O)cc(O)c4-c4cc3ccc4O)[C@H](O)c3ccc(c(Cl)c3)Oc3cc2cc(c3O[C@@H]2O[C@H](CO)[C@@H](O)[C@H](O)[C@H]2O[C@H]2C[C@](C)(N)[C@H](O)[C@H](C)O2)Oc2ccc(cc2Cl)[C@H]1O	1.05 ± 0.029
NS(=O)(=O)c1cc2c(cc1Cl)N=CNS2(=O)=O	1.12 ± 0.07
S=C1SCN(Cc2ccccc2)CN1Cc1ccccc1	1.11 ± 0.061
Cc1cc(C2CCCCC2)n(O)c(=O)c1	0.183 ± 0.014
NS(=O)(=O)c1cc(C(=O)O)c(NCc2ccco2)cc1Cl	1.11 ± 0.052
O=C(O)c1cc(=O)c2ccccc2o1	0.962 ± 0.041
Cc1c(C(N)=O)cc([N+](=O)[O-])cc1[N+](=O)[O-]	0.996 ± 0.039
C=C[C@H]1CN2CC[C@H]1C[C@@H]2[C@@H](O)c1ccnc2ccc(OC)cc12	1.04 ± 0.044
N=C(N)N	0.993 ± 0.033
C[C@]12C=CC(=O)C=C1CC[C@@H]1[C@@H]2[C@@H](O)C[C@@]2(C)[C@H]1CC[C@]2(O)C(=O)COP(=O)(O)O	1.01 ± 0.02
C[C@]12CC[C@H]3C(=CCc4cc(O)ccc43)[C@@H]1CCC2=O	1.25 ± 0.034
Cc1ncc([N+](=O)[O-])n1CC(O)CCl (centres undefined)	0.987 ± 0.086
Cc1cccc(C)c1NC(=O)C1CCCCN1C (centres undefined)	0.9 ± 0.18
COc1ccc(C2C(=O)c3ccccc3C2=O)cc1	0.974 ± 0.036
CN(C)c1ccc2nc3ccc(=[N+](C)C)cc-3sc2c1	0.837 ± 0.081
O=C(Nc1ccccc1)c1ccccc1O	1.05 ± 0.042
Cc1[nH]c(=O)c(C#N)cc1-c1ccncc1	1.07 ± 0.043
Cc1ccnc2c1NC(=O)c1cccnc1N2C1CC1	1.04 ± 0.045
CN(C)CCC=C1c2ccccc2CCc2ccccc21	1.03 ± 0.026
C#C[C@]1(O)CC[C@H]2[C@@H]3CCc4cc(OC5CCCC5)ccc4[C@H]3CC[C@@]21C	0.954 ± 0.1

A run of entries from the list above:
SMILES	normalized growth
O=C(Nc1ccc(C(=O)O)c(O)c1)c1ccccc1	1.12 ± 0.053
CC(C)COCC(CN(Cc1ccccc1)c1ccccc1)N1CCCC1 (centres undefined)	1.04 ± 0.025
C=NC(C(=O)NC1C(=O)N2C1SC(C)(C)C2C(=O)O)c1ccccc1 (centres undefined)	0.913 ± 0.058
CCOC(=O)[C@H](CCc1ccccc1)N[C@@H](C)C(=O)N1[C@H](C(=O)O)C[C@@H]2CCC[C@@H]21	1.01 ± 0.038

Continued.

SMILES	normalized growth
Oc1ccc(Cl)c2c1CCC2	1.1 ± 0.084
CS(=O)(=O)c1ccc(C2=C(c3ccccc3)C(=O)OC2)cc1	1.07 ± 0.11
COc1cc(Cc2cnc(N)nc2N)cc(OC)c1OC	0.059 ± 0.024
CCN(CC)CCOC(=O)C(c1ccccc1)C1CCCCC1 (centres undefined)	1.02 ± 0.02
COCC1=C(C(=O)OC(C)OC(=O)OC(C)C)N2C(=O)[C@@H](NC(=O)/C(=N\OC)c3csc(N)n3)[C@H]2SC1 (some centres undefined)	1.034 ± 0.0056
CCCCC(CC)CN1CN(CC(CC)CCCC)CC(C)(N)C1 (centres undefined)	0.779 ± 0.031
COc1cc2c(cc1OC)C(=O)C(CC1CCN(Cc3ccccc3)CC1)C2 (centres undefined)	0.865 ± 0.043
CC(=O)c1ccc2c(c1)N(CCCN1CCC(CCO)CC1)c1ccccc1S2	0.997 ± 0.026
CO[C@@]1(NC(=O)Cc2cccs2)C(=O)N2C(C(=O)O)=C(COC(N)=O)CS[C@@H]21	0.417 ± 0.0075
O=C(CCCN1CCC(O)(c2ccc(Br)cc2)CC1)c1ccc(F)cc1	1.04 ± 0.039
CNCC[C@H](Oc1cccc2ccccc12)c1cccs1	1.05 ± 0.046
CCCN(CCC)C(=O)C(CCC(=O)O)NC(=O)c1ccccc1 (centres undefined)	1.09 ± 0.025
COc1ccccc1N1CCN(CC(O)COc2cccc3ccccc23)CC1 (centres undefined)	1.2 ± 0.045
CN1CCC(=C2c3ccccc3CC(=O)c3sccc32)CC1	1.02 ± 0.035
CCN1C(=O)NC(c2ccccc2)C1=O (centres undefined)	1.08 ± 0.019
N#CC(c1ccc(Cl)cc1)c1c(Cl)cc(-n2ncc(=O)[nH]c2=O)cc1Cl (centres undefined)	0.927 ± 0.048
COc1cc(OC)c(C(=O)CCCN2CCCC2)c(OC)c1	1 ± 0.046
CCC(=O)c1ccc(O)cc1	1.12 ± 0.045
Cn1ccnc1S	1.14 ± 0.06
Oc1ccc(Cl)c2cccnc12	0.847 ± 0.037
Nc1c(Br)cc(Br)cc1CN[C@H]1CC[C@H](O)CC1	0.864 ± 0.04
CC(C)(Sc1cc(C(C)(C)C)c(O)c(C(C)(C)C)c1)Sc1cc(C(C)(C)C)c(O)c(C(C)(C)C)c1	0.903 ± 0.028
CN1CCCN=C1COC(=O)C(O)(c1ccccc1)C1CCCCC1 (centres undefined)	1.23 ± 0.026
CC(C)(Oc1ccc(Cl)cc1)C(=O)O	1.04 ± 0.032

In the list so far, these have an aryl thioether with sulfur outside any ring:
SMILES	normalized growth
CC(=O)OCC1=C(C(=O)O)N2C(=O)[C@@H](NC(=O)CSc3ccncc3)[C@H]2SC1	0.957 ± 0.058
CC(C)(Sc1cc(C(C)(C)C)c(O)c(C(C)(C)C)c1)Sc1cc(C(C)(C)C)c(O)c(C(C)(C)C)c1	0.903 ± 0.028
